Among the data in PMC4689212 are binding values, retold here.

Sequences of proteins named here, by UniProt entry; tags and fusion partners are left off. Residues count along the entry.
UniProt P26012, residues 43-769: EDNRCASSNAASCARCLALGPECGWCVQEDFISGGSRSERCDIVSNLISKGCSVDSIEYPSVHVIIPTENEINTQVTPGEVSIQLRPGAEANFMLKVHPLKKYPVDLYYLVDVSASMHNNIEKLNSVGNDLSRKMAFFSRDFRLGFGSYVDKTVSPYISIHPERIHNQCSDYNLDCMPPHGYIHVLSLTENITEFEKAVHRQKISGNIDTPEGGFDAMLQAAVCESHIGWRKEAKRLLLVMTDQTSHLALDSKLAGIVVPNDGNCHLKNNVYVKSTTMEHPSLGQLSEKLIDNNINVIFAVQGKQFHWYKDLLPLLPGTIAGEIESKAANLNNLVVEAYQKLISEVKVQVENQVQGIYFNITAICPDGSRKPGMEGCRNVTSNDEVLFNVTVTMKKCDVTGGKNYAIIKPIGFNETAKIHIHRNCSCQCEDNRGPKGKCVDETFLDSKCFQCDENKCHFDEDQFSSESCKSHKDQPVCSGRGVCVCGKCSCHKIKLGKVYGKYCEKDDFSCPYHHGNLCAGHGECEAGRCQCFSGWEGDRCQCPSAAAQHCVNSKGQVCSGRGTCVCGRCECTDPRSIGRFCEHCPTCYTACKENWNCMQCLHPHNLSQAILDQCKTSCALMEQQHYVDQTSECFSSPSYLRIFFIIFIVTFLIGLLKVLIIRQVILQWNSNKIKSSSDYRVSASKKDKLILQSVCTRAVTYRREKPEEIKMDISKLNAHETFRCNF

These are yes or no findings as the source states them, for the method shown. In cells and extracts the contact can be indirect. Binding calls can cover weak binding; strength is not graded here.

In this assay the target is V5-tagged human β8 integrin (human) (UniProt P26012). The assay can be described thus: co-IP; HEK-293 cells co-transfected with Nrp1 (full-length rat or deletion constructs) and V5-tagged human β8 integrin; detergent-soluble lysates (RIPA) immunoprecipitated with anti-V5, immunoblotted with anti-Nrp1.
For the substance “Nrp1 deletion construct lacking the A domain (from UniProt Q9QWJ9) (receptor)”, the binding entry is “binds”. Turning to “Nrp1 deletion construct lacking the B domain (from UniProt Q9QWJ9) (receptor)”, the binding result is given as “binds”. For the substance “Nrp1 deletion construct lacking the MAM domain (from UniProt Q9QWJ9) (receptor)”, the binding result was “binds”.
